From publication PMC12411612 come the findings set out here.

Chains of the proteins cited; added tags and fusions are not shown.
UniProt P09874: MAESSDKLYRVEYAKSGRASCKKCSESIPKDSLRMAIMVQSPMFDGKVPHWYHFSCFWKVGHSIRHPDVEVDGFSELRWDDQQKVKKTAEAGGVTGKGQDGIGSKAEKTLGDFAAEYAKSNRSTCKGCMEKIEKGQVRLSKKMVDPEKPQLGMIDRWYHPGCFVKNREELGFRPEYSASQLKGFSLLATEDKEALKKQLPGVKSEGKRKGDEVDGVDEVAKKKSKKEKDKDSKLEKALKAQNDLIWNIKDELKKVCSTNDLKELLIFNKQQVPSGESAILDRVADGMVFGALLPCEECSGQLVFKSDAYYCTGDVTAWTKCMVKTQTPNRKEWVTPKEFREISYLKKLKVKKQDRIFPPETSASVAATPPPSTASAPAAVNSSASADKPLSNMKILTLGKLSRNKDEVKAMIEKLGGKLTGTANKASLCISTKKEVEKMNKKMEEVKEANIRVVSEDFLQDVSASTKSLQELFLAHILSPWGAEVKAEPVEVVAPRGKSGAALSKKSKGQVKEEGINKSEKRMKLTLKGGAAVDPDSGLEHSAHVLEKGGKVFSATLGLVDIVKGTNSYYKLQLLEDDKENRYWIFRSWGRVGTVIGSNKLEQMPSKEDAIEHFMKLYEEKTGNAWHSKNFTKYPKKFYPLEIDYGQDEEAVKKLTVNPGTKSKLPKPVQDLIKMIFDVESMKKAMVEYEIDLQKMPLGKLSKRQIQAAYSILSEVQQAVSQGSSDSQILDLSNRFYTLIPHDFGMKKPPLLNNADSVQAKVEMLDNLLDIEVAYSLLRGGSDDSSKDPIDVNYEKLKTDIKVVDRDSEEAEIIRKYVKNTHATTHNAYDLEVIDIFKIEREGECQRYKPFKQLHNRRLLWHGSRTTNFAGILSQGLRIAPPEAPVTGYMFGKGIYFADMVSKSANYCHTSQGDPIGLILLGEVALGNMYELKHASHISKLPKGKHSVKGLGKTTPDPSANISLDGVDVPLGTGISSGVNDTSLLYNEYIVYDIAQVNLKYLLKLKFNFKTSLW
UniProt P27008: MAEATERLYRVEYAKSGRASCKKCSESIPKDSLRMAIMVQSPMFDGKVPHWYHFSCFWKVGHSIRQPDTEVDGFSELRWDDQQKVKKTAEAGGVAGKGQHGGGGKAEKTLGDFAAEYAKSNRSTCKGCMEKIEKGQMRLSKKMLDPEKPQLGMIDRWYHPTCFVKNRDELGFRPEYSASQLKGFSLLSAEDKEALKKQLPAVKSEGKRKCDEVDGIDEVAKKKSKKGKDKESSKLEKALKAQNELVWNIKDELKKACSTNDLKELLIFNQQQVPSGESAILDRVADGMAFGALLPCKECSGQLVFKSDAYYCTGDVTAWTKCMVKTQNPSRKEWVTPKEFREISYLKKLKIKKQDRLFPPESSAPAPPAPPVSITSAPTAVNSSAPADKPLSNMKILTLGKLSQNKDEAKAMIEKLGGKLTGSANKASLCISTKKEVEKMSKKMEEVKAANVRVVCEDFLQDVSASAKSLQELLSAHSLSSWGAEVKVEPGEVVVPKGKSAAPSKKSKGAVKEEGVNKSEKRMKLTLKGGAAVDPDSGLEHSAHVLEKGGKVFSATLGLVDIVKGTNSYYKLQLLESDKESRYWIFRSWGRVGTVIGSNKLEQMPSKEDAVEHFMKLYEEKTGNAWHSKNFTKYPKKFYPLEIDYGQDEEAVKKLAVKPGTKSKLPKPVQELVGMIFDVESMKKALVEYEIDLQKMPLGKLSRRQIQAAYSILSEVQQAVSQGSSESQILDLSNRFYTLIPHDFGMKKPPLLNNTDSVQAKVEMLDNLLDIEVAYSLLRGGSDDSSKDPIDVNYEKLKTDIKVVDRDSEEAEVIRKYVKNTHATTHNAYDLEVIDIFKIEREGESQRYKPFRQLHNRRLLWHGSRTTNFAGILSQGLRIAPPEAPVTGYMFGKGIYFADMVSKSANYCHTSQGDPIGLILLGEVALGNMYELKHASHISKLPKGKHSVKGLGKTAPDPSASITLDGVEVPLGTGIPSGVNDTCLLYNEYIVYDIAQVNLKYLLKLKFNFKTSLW
UniProt P05412: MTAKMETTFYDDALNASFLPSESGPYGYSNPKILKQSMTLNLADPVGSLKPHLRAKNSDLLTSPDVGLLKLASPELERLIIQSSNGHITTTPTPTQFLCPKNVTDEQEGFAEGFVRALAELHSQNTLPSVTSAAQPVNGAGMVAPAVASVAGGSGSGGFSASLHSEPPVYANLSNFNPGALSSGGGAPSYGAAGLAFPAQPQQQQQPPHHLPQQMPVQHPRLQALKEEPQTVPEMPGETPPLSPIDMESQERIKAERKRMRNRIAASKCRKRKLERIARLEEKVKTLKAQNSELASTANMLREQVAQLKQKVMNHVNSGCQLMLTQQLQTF

Assay [1] has as its target PARP1 (endogenous, T/G HA-VSMC) (human (endogenous in T/G HA-VSMC)) (UniProt P09874). Kind of assay: co-IP; nuclear extracts of T/G HA-VSMCs infected with Flag-myocardin adenovirus; 300 µg extract, antibody at 4 °C overnight, protein-A/G agarose, washed three times with RIPA lysis buffer; unspecific IgG as control; also with Ad-PARP1 or Ad-mut-PARP1 infection.
The target in assay [2] is PARP1 (endogenous, A7r5 cells) (rat (endogenous in A7r5)) (UniProt P27008). Kind of assay: co-IP; A7r5 cells infected with Ad-myocardin shRNA or Ad-SRF shRNA; PARP1-bound SRF and myocardin detected.

No constants are given. Whether binding was seen depends on the method and setting. Binding seen in cells or lysates may run through a third protein. Some binding calls cover weakened binding; strength is not graded here.

Take “c-Jun (endogenous, T/G HA-VSMC) (from UniProt P05412 1-331)”: in assay [1], the binding entry is “binds”.

B1: myocardin (endogenous, A7r5 cells) (protein, UniProt Q8R5I7 1-938)
chain: MTLLGSEHSLLIRRKFRSVLQLRLQQRRTQEQLANQGLIPPLKSPTEFHDPRKKLDSAKTEDSLRRKVRNRSDRASLVNMHILQASTAERSIPTAQMKLKRARLADDLNEKIALRPGPLELVEKNILPMDSSVKEAIKGTEVSLSKAADAFAFEDDSSRDGLSPDQARSEDPQGSGGSTPDIKSTEAPLAGPLDTIQDLTPGSESDKNDTASQLSNQSDSGKQVLGPLSTPIPVHTAVKSKSLGDSKNRHKKPKDPKPKVKKLKYHQYIPPDQKAEKSPPPMDSAYARLLQQQQLFLQLQILSQQQQQQQQQQQQQQQQQQQQRFSYPGMHQAHLKEPNEQMTRNPNSSSTPLNNTPLSPVKNSLSGQTGVSSLKPGPLPPNLDDLKVSELRQQLRIRGLPVSGTKTALVDRLRPFQDCAGNPVPNFGDITTVTFPVTPNTLPSYQSSPSGFYHFGSTSSSPPISPASSDLSAAGSLPDTFTDASPGFGLHASPVPACTDESLLSSLNGGSGPSEPDGLDSEKDKMLVEKQKVINQLTWKLRQEQRQVEELRMQLQKQKSGCNDQKPLPFLATTIKQEDVSSCPFAAQQASGKGQGHSSDSPPPACETAQLLPHCVESSGQTHVLSSTFLSPQCSPQHSPLGTLKSPQHISLPPSPNNHYFLASSSGAQRENHGVSSPNSSQGCAQMTGLQSSDKVGPTFSIPSPTFPKSSPTVPEITQPPSYEDAVKQQMTRSQQMDELLDVLIESGEMPADAREDHSCLQKIPKIPGSSCSPTTILPKSSASFEQASSGGQISFDHYATDSEEHLEVLLNSHSPIGKVSDVTLLKIGSEEPPFDGIMDGFPGKAAEDLFSAHELLPGPLSPMHTQLSPPSVDSSGLQLSFTESPWETMEWLDLTPPSSTPGFSNLTSSGPSIFNIDFLDVTDLNLNSPMDLHLQQW
Take B1: the binding result in assay [2] was “binds”.
